Results on two molecules are retold here after article PMC10279700, “Structural insights into regulation of the PEAK3 pseudokinase scaffold by 14-3-3” (Nature Communications, 2023).

Positions count from the first letter of the chain named. Names and notes keep the numbering of the source. These are yes or no findings as the source states them, for the method shown. Binding seen in cells or lysates may run through a third protein. Some entries that bind do so weakly or less than the wild type. Where a sequence is shown, tags or fusion partners need not be part of it.

For test [1], the target named is FLAG-tagged PEAK3 S69A (human) (UniProt Q6ZS72). The experiment in a line: co-IP; HA-tagged and FLAG-tagged PEAK3 (WT or S69A) co-expressed in HEK293; anti-FLAG or anti-HA/protein A beads; Western blot.
Test [2] concerns the target FLAG-tagged WT PEAK3 (human) (UniProt Q6ZS72). The test is described as above.

B1: FLAG-tagged PEAK3 S69A (protein, UniProt Q6ZS72 1-473)
chain: MSSPEPPTEPPEPDNPTWSTQPTYSNLGQIRAHLLPSKACRLRTPGSLSTNPEPLPPPLPKKILTRTQALPTRRTLHPSSIQVQPPRRPFLGSHSVDKSQAAVGPACLPAELTFGPADAPLGLSLRDLHSPEAVHTALAARQLQGLRTIYARLRARLMGGHPGPCHPGHSFRLLDSSPCAESGDALYYRVVRAHEDAWHILVAKVPKPGADVPHPWGLELQASLSPHFNLQGLCGLVPEGTLPGAPWRGAVALAAEVPERTVAQWLAEACTQPPEEFVWAVALLLLQLSAALKFLEAWGAALVELRPENLLLVAPRGCATTGPPRLLLTDFGRVCLQPPGPPGSPGPHAPQLGSLLRALLSLAAPSTTPLAAGLELLAAQLTRLRPSASRTRGALQALLWGPGPELRGRGAPLGPWLRALGPWLRVRRGLLVLRLAERAAGGEAPSLEDWLCCEYLAEATESSMGQALALLWD
With B1, in test [1], the binding result is recorded as “binds”.

B2: FLAG-tagged WT PEAK3 (protein, UniProt Q6ZS72 1-473)
chain: B1 chain with A69S
In the case of B2, in test [2], the binding entry is on record as “binds”.
